For assay [1], the target named is T1, Blt1-3Flag (S. pombe) (UniProt O74338).
T1 sequence: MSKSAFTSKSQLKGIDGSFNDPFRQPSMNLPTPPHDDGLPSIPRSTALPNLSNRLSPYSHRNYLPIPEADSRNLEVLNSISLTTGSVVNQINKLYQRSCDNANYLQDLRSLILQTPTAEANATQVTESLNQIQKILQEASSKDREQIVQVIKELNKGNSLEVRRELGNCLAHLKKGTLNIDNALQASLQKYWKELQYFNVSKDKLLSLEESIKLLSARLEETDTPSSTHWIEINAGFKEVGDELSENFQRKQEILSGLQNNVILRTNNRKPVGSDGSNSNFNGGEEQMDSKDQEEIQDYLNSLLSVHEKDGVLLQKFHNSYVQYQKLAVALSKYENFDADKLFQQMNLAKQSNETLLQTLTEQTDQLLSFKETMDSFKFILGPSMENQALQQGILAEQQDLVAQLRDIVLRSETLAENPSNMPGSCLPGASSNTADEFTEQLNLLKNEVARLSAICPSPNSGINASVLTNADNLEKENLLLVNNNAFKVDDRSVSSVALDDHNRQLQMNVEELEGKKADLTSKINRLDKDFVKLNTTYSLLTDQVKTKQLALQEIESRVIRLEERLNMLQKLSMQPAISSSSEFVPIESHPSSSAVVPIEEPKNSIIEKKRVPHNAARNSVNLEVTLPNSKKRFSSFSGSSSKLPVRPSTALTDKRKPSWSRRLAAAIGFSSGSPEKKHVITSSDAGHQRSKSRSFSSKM
The assay can be described thus: co-IP; reciprocal co-IPs from whole cell extracts (0.5-4 mg) of asynchronous S. pombe, protein-A Dynabeads with anti-3PK, anti-Flag or anti-GFP, 2 h at 4°C; wild-type cells (the Nod1-Gef2 pair also in blt1Δ cells).

Assay [2] addresses T1, Blt1-3Flag (S. pombe). The assay can be described thus: co-IP; as a1, whole cell extracts of nod1Δ cells; increasing amounts of extract loaded (1x, 2x, 4x).

No constants are given. Whether binding was seen depends on the method and setting. Binding seen in cells or lysates may run through a third protein. Some results given as binding are weak or reduced against the parent protein; the word gives no strength. Tags and fused reporters may be left off the sequences shown.

B1: Gef2-3GFP (protein, UniProt Q09733 1-1101)
chain: MDVGTMGSRAELLAISIQFGGLWVFRDLLQMNPLFEQDHVFCTFNHPNMGLVLISFAKVDGHILAAYALSKLGPDTFSICYPFSSKLDAFAQTLDLEWQIASMHKEAAACVYEFLCVESVCLHTGENWRESVIEPEYASYIFDTINVFQSSSLTRELYSLGEPNGVREFVVDAIFDIKVDNSWWEDPSNSYWKTVIGSREMFEDSRKKTSSPSPSFASSKDAGTIPAIQKKKSLLIEMMETESTYVERLRHLVNDYALPLRDLAKSSKKLLGLYELNTLFPPCLNKLIQLNSAFLDEFEAIMSDLNFEDIDEKKFEEIDLRLACCFESHFFAFSQHYPRYLEQSNDFGNVLKMASKIPKFVEFHDQVKLNANMNVGLSQLIMEPVQRIPRYSLFLDQIILLTQEGECQHTYVRSVEIIKNIAEMPTVDAEERSRIFAGLQHIIPDLAPNMISNSRNFIDCIDVTREFLKNGQLHLIPYTLILFNDRICLVQRRSKSSIASTILDLRKQNPRNSYSKEKRAQYIGSNMNEAVELTRSMVEENTIFLISKYASSPSFFNEYPILKFRCDFENVRTMDRFYQSFQKALSMNKSQPSCLSFSKLNDFVVFFNNYSRFEYEKESKRSDIVCICTNDANVDKHKFLQDGNIVITFFQQDEDFHLSFDSWLGVSLPTEAVIAKEDLREACLNYLINIKRLLLCPFSNRNFSSLDLYSNLIQHLLSANSSPRKSRLSFGGRPGSPSKISLSLNRFYNQGGLSKSCATLPSQMYNLDHNNISQKSLKFNTHNTSKASAEKTVEHLEAFKGGFKYHTDLKNLLYPLSEKEKIEGDELYDNILKETFNEELLSHYPPNIIYATFQKYLSSFINRKFGVLLSSSFIQQLNTVENLNLSFNSTDAVYHLKKILQDLPESSLKILENIFSIASDLLLRLPLKDQCDFVTKQLAIALAPSMFGSNAVELVYYLAYHSDRIFGTVEELPTPVSPANSNNDKQLDESKFQAIAMKEMPERHPKEILPGQIEREAYEDLRRKYHLTLARLAQMTRLNEDSKKSIPLLYDRFNHDLKLIKQSVQASLIRKQCELDTAKWTLEEYESKLNAKEGCQTNIFI
For B1, the figures for the binding entry with Blt1-3Flag (S. pombe) [1] and in the assay with Blt1-3Flag (S. pombe) [2] were “binds” and “no binding (condition: in nod1Δ cells)”, respectively.

(Values after article PMC3547912.)
